The RepoRT retention time repository (doi:10.1007/s11306-011-0298-z)

Experiment: RP, Waters ACQUITY UPLC HSS T3, 100 × 2.1 mm, 1.8 µm, 30 °C, 0.3 mL/min, estimated dead time 0.73 min; A: water + 0.1% formic acid, pH 3; B: methanol + 0.1% formic acid, pH 3; gradient (min/%B) 0/0 6/0 56/100 60/100
Conditions: stereoisomer not certain

Row | Compound | LC retention time [min]
1 | O=C(O)C1=CC(O)C(O)C(O)C1 (configuration not stated) [shikimic acid] | 2.29
2 | O=C(c1ccccc1)c1ccccc1 [benzophenone] | 39.1
